# PubChem BioAssay AID1671190 (National Center for Advancing Translational Sciences (NCATS), 2021)
# Protein sequences, listed by entry. Tags and fused reporters are not part of them. Lines headed by an entry give the natural chain unless they say otherwise; changes in a name come on top.
# UniProt P18054: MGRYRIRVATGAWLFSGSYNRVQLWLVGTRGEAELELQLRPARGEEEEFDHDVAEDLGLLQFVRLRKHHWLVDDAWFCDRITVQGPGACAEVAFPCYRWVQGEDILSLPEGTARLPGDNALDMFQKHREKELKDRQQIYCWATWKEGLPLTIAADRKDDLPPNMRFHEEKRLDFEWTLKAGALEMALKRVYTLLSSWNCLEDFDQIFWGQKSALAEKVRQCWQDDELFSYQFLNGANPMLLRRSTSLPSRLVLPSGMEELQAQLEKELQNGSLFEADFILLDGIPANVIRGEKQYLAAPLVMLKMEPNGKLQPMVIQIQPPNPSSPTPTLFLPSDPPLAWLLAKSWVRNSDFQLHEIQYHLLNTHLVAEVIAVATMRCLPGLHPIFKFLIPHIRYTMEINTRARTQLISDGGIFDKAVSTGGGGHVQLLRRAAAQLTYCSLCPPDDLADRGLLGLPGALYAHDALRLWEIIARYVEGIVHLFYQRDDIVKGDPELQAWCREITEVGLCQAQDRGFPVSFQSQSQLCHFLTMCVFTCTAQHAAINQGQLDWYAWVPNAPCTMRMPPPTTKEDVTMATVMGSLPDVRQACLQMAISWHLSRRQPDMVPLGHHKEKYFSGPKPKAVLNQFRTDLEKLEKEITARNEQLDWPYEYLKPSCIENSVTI
# Values joined by “and” are separate entries in the source; they are usually repeats but may differ in a detail not shown here. Equal values may be shown once. The campaign covered roughly 580,000 compounds. About 6,100 (1.1%) were called active. Inconclusive results, whose numbers are uncertain, are shown with a selection of clear calls. Calls follow the shape of the dose curve; as a rule, active = well fitted inhibition curve with a large enough effect; inconclusive = small, poorly fitted or top-dose-only effect, or another doubt; inactive = no such curve, though single readings can be large or run the other way. Where the call is inconclusive, the potency comes from a doubtful curve fit.
# Target: Polyunsaturated fatty acid lipoxygenase ALOX12 (Homo sapiens) (UniProt P18054)
# Assay: Primary qHTS assay for inhibitors of human arachidonate 12S-lipoxygenase (ALOX12): Round 2
# Details: purified 12hLO, xylenol orange hydroperoxide absorbance; activity change, negative = inhibition: at 108 µM (top of the series) unless noted
# Procedure, shortened: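 Purified human 12hLO (150 nM final) in 25 mM Hepes, 0.01% Triton X-100, pH 7.0 was preincubated 15 min at room temperature with compound. Then 40 uM arachidonic acid was added, 30 min. Hydroperoxide was read by Fe-XO absorbance ratio 573/405 nm.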
# % is scaled to controls: 0 for no effect and ±100 for the full control effect; potency is read from the fitted curve at half-maximal effect.
Compound,Potency,"activity change, negative = inhibition"
Cc1cc(S(=O)(=O)N2CCN(c3ccccn3)CC2)c(C)cc1Cl,"inconclusive: 39.8 µM [inhibitor, partial curve, poor fit]",
Cc1ccc(-n2ncc(C(=O)Nc3cc(Cl)cc(Cl)c3)c2C2CCNCC2)cc1C,"inconclusive: 79.4 µM [inhibitor, partial curve, poor fit]",
Fc1ccc(-c2n[nH]c(=S)n2/N=C/c2c[nH]c3ccccc23)cc1,"inconclusive: 35.5 µM [inhibitor, partial curve, poor fit]",
c1ccc(C(NCc2cccs2)c2ccccc2)cc1,"inconclusive: 50.1 µM [inhibitor, partial curve, poor fit]",
CC(C)COc1ccc(-c2nn(-c3ccccc3)cc2C(=O)Nc2nccs2)cc1,"inconclusive: 141 µM [inhibitor, single point]",
COCc1ncc(CN2CC[C@@H](c3ccc4ccccc4c3)[C@H](O)C2)cn1,"inconclusive: 8.91 µM [inhibitor, full curve]",
CC[C@@H]1C=C(C(=O)O)[C@H](c2ccc(Cl)cc2)N1S(=O)(=O)c1ccc(C)cc1,"inconclusive: 44.7 µM [inhibitor, partial curve, poor fit]",
Cc1cc(/C=N/NC(N)=S)c(C)n1-c1ccc(Br)cc1,"inconclusive: 50.1 µM [inhibitor, partial curve, poor fit]",
CC(C)(CNC(=S)NC1CC2CCC1C2)N1CCOCC1 (stereo not drawn),inactive,
O=C(CSc1nnc(-c2ccccc2)o1)Nc1ccccc1F,inactive,
Cc1cc(C)nc(/N=C(\N)Nc2ccc(C(C)C)cc2)n1,"inconclusive: 112 µM [inhibitor, single point]",
COc1ccc(N(CC(=O)N2CCN(Cc3ccc4c(c3)OCO4)CC2)S(=O)(=O)c2ccc(F)cc2)cc1,inactive,
CCc1c(C)c2cc(Cl)c(O)c(CN(CC)CC)c2oc1=O,inactive,
COc1ccc(CNc2ccnc(-c3ccccc3C(F)(F)F)n2)c(OC)c1,"inconclusive: 20 µM [inhibitor, partial curve, poor fit]",
Cc1[nH][nH]c(=O)c1C(c1c(C)[nH][nH]c1=O)c1cn(C)c2ccccc12,"inconclusive: 112 µM [inhibitor, partial curve, poor fit]",
C(#CC1CCCC1)c1ccc2c(c1)COc1c3ccccc3nn1-2,inactive,
Cc1ccc(CNC(=O)c2cnn(-c3cccc(C)c3)c2C2CCN(C(=O)OC(C)(C)C)CC2)cc1,inactive,
CC(=O)c1ccc(NS(=O)(=O)c2ccc(-c3cnc(C4CC4)o3)cc2)cc1,"inconclusive: 126 µM [inhibitor, partial curve, poor fit] and inconclusive: 20 µM [inhibitor, partial curve, poor fit]",
CCOCCCn1c(=N)c(C(=O)NC2CCCC2)cc2c(=O)n3cc(C)ccc3nc21,"inconclusive: 141 µM [inhibitor, partial curve, poor fit]",
CC(C)COc1ccc(-c2nn(-c3ccccc3)cc2/C=C2/SC(=S)N(CC(=O)O)C2=O)cc1,active: 44.7 µM,
CCC1CCCCN1S(=O)(=O)c1cc(C(=O)Nc2ccc(C)c(F)c2)ccc1F (stereo not drawn),"inconclusive: 112 µM [inhibitor, partial curve, poor fit]",

Compound,Potency,"activity change, negative = inhibition"
Cc1nc(Sc2ccc(Cl)cc2)c(C#N)c(C)c1[N+](=O)[O-],inactive,
Cc1ccc(NC(=O)C23CCC(C)(C(=O)[C@H]2Br)C3(C)C)cc1 (stereo partly drawn),"inconclusive: 112 µM [inhibitor, single point]",
CC1=C(C(=O)N(C(C)C)C(C)C)CC(CC(=O)NCC2CCCCC2)C(=O)N1Cc1ccc(C(C)(C)C)cc1 (stereo not drawn),"inconclusive: 79.4 µM [inhibitor, single point]",
O=C1NC2(CCCN([S+](=O)([O-])c3cccs3)C2)Oc2ccccc21 (stereo not drawn),"inconclusive: 56.2 µM [inhibitor, partial curve, poor fit]",
O=C1NC[C@H](Cc2ccc(O)cc2)N(C[C@@H]2CCCN2C[C@H](Cc2ccccc2)N2C[C@H](Cc3ccc(O)cc3)N(CCc3ccccc3)C(=O)C2=O)C1=O,"inconclusive: 79.4 µM [inhibitor, partial curve, poor fit]",
C=CCSc1nnc(NC(=O)C2CC(=O)N(Cc3ccc(C)cc3)C2)s1 (stereo not drawn),"inconclusive: 79.4 µM [inhibitor, single point]",
Cc1ccc(-c2cn3c(=S)[nH]nc3s2)cc1,"inconclusive: 28.2 µM [inhibitor, full curve]",
COc1cc(-c2c(NC(=O)c3cccc([N+](=O)[O-])c3)oc3ccccc3c2=O)cc(OC)c1OC,inactive,
O=C(CSc1nc2nc[nH]c2c(=O)[nH]1)NCc1ccccc1,active: 0.562 µM,
COc1cccc(CN2CCc3c(cc(C(=O)Nc4cccc(C)c4C)n3C)C2)c1,inactive,
O=C1CC(=O)CC(c2cccc(Cl)c2)C1,,inconclusive: -42.5% [inhibitor]
O=C(N[C@@H]1CN(Cc2ccc(F)cc2F)C[C@H]1CO)c1ccccc1,active: 28.2 µM,
CC1=CC[C@@]23C[C@@H]1C(C)(C)[C@@H]2CC[C@H]3C,"inconclusive: 251 µM [inhibitor, single point]",
O=C(CCNS(=O)(=O)c1ccc(Br)cc1)NNC(=O)C1COc2ccccc2O1 (stereo not drawn),"inconclusive: 70.8 µM [inhibitor, partial curve, poor fit]",
CCOC(=O)c1c(-c2ccc(OC)c(OC)c2)csc1NC(=O)C1CCCCC1,inactive,
CS(=O)(=O)c1cccc(C(=O)N2CCCCCCC2)c1,inactive,
CCCCn1c(N)c(N(CCC(C)C)C(=O)c2ccc([N+](=O)[O-])o2)c(=O)[nH]c1=O,"inconclusive: 112 µM [inhibitor, partial curve, poor fit]",
COc1ccc(C(CNS(=O)(=O)c2cccc(F)c2)N2CCCC2)cc1 (stereo not drawn),inactive,
O=C(COC(=O)C1CCN(c2ccc(C(F)(F)F)cn2)CC1)Nc1ccc(C(F)(F)F)cc1,"inconclusive: 63.1 µM [inhibitor, partial curve, poor fit]",
Cc1nc2ccccc2c(=O)n1CCc1ccc(O)cc1,"inconclusive: 2 µM [inhibitor, full curve, poor fit]",
CC(O)(c1ccc(F)c(F)c1)c1nc(-c2ccc(F)c(Cl)c2)cs1 (stereo not drawn),"inconclusive: 89.1 µM [inhibitor, single point]",

# Quoted at random: two entries already listed.
Compound,Potency,"activity change, negative = inhibition"
c1ccc(C(NCc2cccs2)c2ccccc2)cc1,"inconclusive: 50.1 µM [inhibitor, partial curve, poor fit]",
COc1cc(-c2c(NC(=O)c3cccc([N+](=O)[O-])c3)oc3ccccc3c2=O)cc(OC)c1OC,inactive,

# (listing goes on)

Compound,Potency,"activity change, negative = inhibition"
CCOC(=O)c1sc2nc(CSc3ccccc3Cl)[nH]c(=O)c2c1C,"inconclusive: 112 µM [inhibitor, single point]",
O=C(OCc1ccccc1)N1CCC2CC1c1cc(-c3cc4ccccc4o3)ccc12 (stereo not drawn),inactive,
COc1ccc(-c2ccc3c(c2)[C@@H]2C[C@H](N(C)C(=O)Nc4ccccc4)[C@H]([C@H](C)O)C(=O)N2CC3)cc1,inactive,
O=C(NCCc1ccccc1)C1CCN(Cc2cc3ccccc3n2Cc2cccc(Cl)c2)CC1,"inconclusive: 89.1 µM [inhibitor, partial curve, poor fit]",
CCOc1ccc(NS(=O)(=O)c2cc(NC(=O)c3cccc(C)c3)ccc2Cl)cc1,"inconclusive: 31.6 µM [inhibitor, partial curve, poor fit]",
Cc1ccc(N(C(=O)CNC(=O)c2ccco2)C(C(=O)NC2CCCC2)c2ccncc2)cc1F (stereo not drawn),"inconclusive: 3.98 µM [inhibitor, full curve]",
CC(OC(=O)c1cccc(N2C(=O)c3ccccc3C2=O)c1)C(=O)Nc1ccc(N(C)C)cc1 (stereo not drawn),"inconclusive: 44.7 µM [inhibitor, partial curve, poor fit]",
NC(=O)C1CCCN(C(=O)NC2CCCCC2)C1 (stereo not drawn),inactive,
O=C(CNC(=O)c1ccco1)NCc1nc2ccccc2[nH]1,"inconclusive: 35.5 µM [inhibitor, single point]",
Cc1cc(Cl)ccc1C(O)c1ncc(-c2cccc3ccccc23)[nH]1 (stereo not drawn),inactive,
O=C(O)c1cccc(N2C(=O)C3CC=C(Cl)CC3C2=O)c1 (stereo not drawn),inactive,
Cc1ccc(C(=O)N2CCC3(CC2)C(=O)Nc2ccccc23)cc1,"inconclusive: 126 µM [inhibitor, partial curve, poor fit]",
CCC(C)N(C(=O)c1csnn1)C(C(=O)NCc1ccc(F)cc1)c1ccccc1 (stereo not drawn),inactive,
CC(=O)N1CCC2(CC1)CC(N(Cc1ccc(F)cc1)C1CC1)CCO2 (stereo not drawn),"inconclusive: 10 µM [inhibitor, partial curve, poor fit]",
O=c1n(-c2cccc(Cl)c2)nc2n1CCN([S+](=O)([O-])c1ccccc1)C2,"inconclusive: 70.8 µM [inhibitor, partial curve, poor fit]",
CC(NC(=O)c1cccc2ccccc12)C1CC2CCC1C2 (stereo not drawn),inactive,
O=C(CSc1ccccc1C(=O)Nc1ccc2c(c1)OCCO2)NCc1ccco1,"inconclusive: 39.8 µM [inhibitor, partial curve]",
CC(=O)c1cccc(NC(=O)C(CC(C)C)NS(=O)(=O)c2ccc3c(c2)CCN3C(C)=O)c1 (stereo not drawn),"inconclusive: 112 µM [inhibitor, single point]",
COc1cc(S(=O)(=O)N2CCCCCC2)ccc1-n1cnnn1,"inconclusive: 6.31 µM [inhibitor, full curve, poor fit]",
COCC(C)Nc1nc(C)c(C(C)=O)s1 (stereo not drawn),"inconclusive: 39.8 µM [inhibitor, partial curve, poor fit]",
CCC(CC)COC(=O)C1=C(C)NC(=O)NC1c1ccc([N+](=O)[O-])cc1 (stereo not drawn),"inconclusive: 0.316 µM [inhibitor, full curve, poor fit]",

# Some values from above:
# In Potency, O=C(OCc1ccccc1)N1CCC2CC1c1cc(-c3cc4ccccc4o3)ccc12 (stereo not drawn) shows inactive
# In Potency, COc1ccc(-c2ccc3c(c2)[C@@H]2C[C@H](N(C)C(=O)Nc4ccccc4)[C@H]([C@H](C)O)C(=O)N2CC3)cc1 shows inactive
